{"source": "PubChem BioAssay AID504465", "about": "(National Center for Advancing Translational Sciences (NCATS), 2011)", "note": "Hit rate of the full screen: of about 2,100 compounds, about 210 (10%) were called active. Inconclusive means that the source gave no clear call. Such entries were picked first, then a sample of the others. Calls come from the whole dose curve; as a rule, active = well fitted inhibition curve with a large enough effect; inconclusive = small, poorly fitted or top-dose-only effect, or effect the other way; inactive = no such curve, though single readings can be large or run the other way. Potencies of inconclusive entries are doubtful fits and often do not repeat. Potency is the fitted concentration of half-maximal effect."}
{"experiment": "IN Cell qHTS Assay for Inhibitors of the mTORC1 Signaling Pathway in MEF (Tsc2-/-, p53-/-) Cells: Sytravon; note: nearly all actives have a fitted effect of over 60% in size", "details": "phospho-rpS6 immunofluorescence, 24 h; activity, negative = inhibition: at 38.3 µM (top of the series)", "in_short": "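Tsc2-/-, p53-/- MEFs (empty-vector) treated with compound 24 h at 37 degree Celsius, then fixed and stained for phospho-rpS6 Ser235/236 (Alexa-488) plus Hoechst. Reported as % positive cells, thresholds set against 7.5 nM rapamycin and DMSO wells.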"}
{"smiles": "Cc1nn(C)c2c1c(-c1ccccc1)cc(=O)n2Cc1ccccc1C#N", "activity, negative = inhibition": "inactive: 0.892%"}
{"smiles": "CCOc1ccc(CNCc2c(C(=O)O)n(Cc3ccc(OC)cc3)c3ccccc23)cc1", "Potency": "inconclusive: 18.5 µM [falling, single point]"}
{"smiles": "CC(C)c1ccc2occ(CC(=O)Nc3cccc(C(F)(F)F)c3)c2c1", "Potency": "inconclusive: 14.7 µM [falling, single point]"}
{"smiles": "COc1ccc(/C=C/c2nc(C#N)c(N3CCCCCC3)o2)cc1OC", "Potency": "inconclusive: 20.7 µM [falling, single point]"}
{"smiles": "COc1ccccc1Nc1c2c(nc3ccc(NC(=O)/C=C/c4cc(OC)c(OC)c(OC)c4)cc13)CCCC2", "Potency": "inconclusive: 0.233 µM [falling, full curve, poor fit]"}
{"smiles": "CC(C)c1ccc(NC(=O)C2Cc3ccccc3N2C(=O)c2ccccc2)cc1", "note": "(centres undefined)", "activity, negative = inhibition": "inactive: -4.76%"}
{"smiles": "Cc1ccc(S(=O)(=O)C2(C(=O)Nc3ccc(C(C)C)cc3)CC2)cc1", "activity, negative = inhibition": "inactive: 23.2%"}
{"smiles": "Cc1ccc(CN2C(=O)C(=O)c3cc(Br)cc(C)c32)cc1", "Potency": "active: 5.85 µM"}
{"smiles": "N#Cc1c(C(F)(F)F)cc(-c2cccs2)nc1SCC(=O)Nc1cccc(Br)c1", "Potency": "inconclusive: 16.5 µM [falling, single point]"}
{"smiles": "Cc1ccccc1Cn1c(=O)n(CCCCC(=O)NCc2ccc3c(c2)OCO3)c(=O)c2ccccc21", "Potency": "inconclusive: 23.3 µM [falling, single point]"}
{"smiles": "Cc1cccc(C)c1NC(=O)c1cc(S(=O)(=O)N2CCCc3ccccc32)ccc1F", "activity, negative = inhibition": "inactive: 6.25%"}
{"smiles": "Cc1ccc(Nc2nc(C(N)=O)c(NC(=O)c3ccccc3Br)s2)cc1", "Potency": "inconclusive: 4.65 µM [falling, full curve, poor fit]"}
{"smiles": "COc1ccc(CNC(=O)c2cc(-c3ccc(OC)c(OC)c3)nc3n[nH]c(-c4ccc(C)cc4)c23)cc1", "Potency": "active: 14.7 µM"}
{"smiles": "CC(=O)c1ccc(NC(=O)CSc2nnc3c(n2)[nH]c2ccccc23)cc1", "Potency": "inconclusive: 26.1 µM [falling, single point]"}
{"smiles": "CC1CCN(S(=O)(=O)c2ccc3nc(Nc4cccc(F)c4)ccc3c2)CC1", "activity, negative = inhibition": "inactive: -24.8%"}
{"smiles": "CCOc1ccc(NC(=O)c2cnn3c2NC(C)=C(C(=O)Nc2ccc(Cl)cc2)C3c2ccc(OC)c(OC)c2)cc1", "note": "(centres undefined)", "Potency": "inconclusive: 16.5 µM [falling, single point]"}
{"smiles": "Cc1cccc(OCC(=O)N(Cc2ccc(N(C)C)cc2)Cc2ccco2)c1C", "Potency": "inconclusive: 26.1 µM [falling, single point]"}
{"smiles": "CCOc1ccc(NC(=O)CCC(=O)N2CCSc3ccccc32)cc1", "Potency": "inconclusive: 5.21 µM [falling, single point]"}
{"smiles": "CCCn1c(=N)c(C(=O)NCc2ccco2)cc2c(=O)n3cc(C)ccc3nc21", "Potency": "inconclusive: 23.3 µM [falling, single point]"}
{"smiles": "CC1CCc2noc(NC(=O)c3ccc([N+](=O)[O-])cc3)c2C1", "note": "(centres undefined)", "Potency": "inconclusive: 5.21 µM [falling, single point]"}
{"smiles": "CCNC(=O)c1ccc2nc(Cc3ccccc3)oc2c1", "Potency": "inconclusive: 0.0826 µM [falling, full curve, poor fit]"}
{"smiles": "CCOC(=O)c1c(NC(=O)c2ccc(S(=O)(=O)N3CCCC(C)C3)cc2)sc2c1CCN(C(C)C)C2", "note": "(centres undefined)", "activity, negative = inhibition": "inactive: 6.25%"}
{"smiles": "COC(=O)c1ccc2c(=O)n(CCCCCC(=O)N3CCN(c4cc(Cl)ccc4C)CC3)c(=O)[nH]c2c1", "Potency": "inconclusive: 23.3 µM [falling, partial curve, poor fit]"}
{"smiles": "O=C(Nc1ccc(C(F)(F)F)cc1)C1CCCN(S(=O)(=O)c2cccc3cccnc23)C1", "note": "(centres undefined)", "activity, negative = inhibition": "inactive: -23.6%"}
{"smiles": "COc1ccccc1Nc1c2c(nc3ccc(NC(=O)c4cccc(OC)c4OC)cc13)CCCC2", "Potency": "active: 5.85 µM"}
{"smiles": "CCn1c(=O)c2cc(C(=O)NCCCN(C)Cc3ccccc3)sc2c2ccccc21", "Potency": "inconclusive: 14.7 µM [falling, single point]"}
{"smiles": "COC(=O)c1cnc(N2CCN(c3ccccc3OC)CC2)c2ccccc12", "Potency": "inconclusive: 23.3 µM [falling, partial curve, poor fit]"}
{"smiles": "O=C(NCc1cccnc1)C(=O)NCC(c1cccnc1)N1CCN(c2ccccc2)CC1", "note": "(centres undefined)", "Potency": "inconclusive: 9.27 µM [falling, partial curve]"}
{"smiles": "COc1ccc(-c2nc(SCC(=O)Nc3c(C)cc(C)cc3C)n[nH]2)cc1", "activity, negative = inhibition": "inactive: -15.3%"}
{"smiles": "CCn1cc(C(=O)N2CCN(c3cccc(C)c3C)CC2)c2cc(OC)c(OC)cc2c1=O", "Potency": "inconclusive: 0.0233 µM [falling, full curve, poor fit]"}
{"smiles": "Cc1ccc(Cn2c(C(C)NC(=O)c3ccccc3)nc3ccccc32)cc1", "note": "(centres undefined)", "Potency": "inconclusive: 0.0046 µM [falling, full curve, poor fit]"}
{"smiles": "CN(C)C(=O)c1c(NC(=O)c2ccccc2F)sc2c1CCCC2", "activity, negative = inhibition": "inactive: 3.93%"}
{"smiles": "Cc1ccc(C(=O)N(Cc2ccc(N(C)C)cc2)Cc2ccco2)cc1", "Potency": "inconclusive: 2.07 µM [falling, partial curve, poor fit]"}
{"smiles": "CCN(CC)CCNC(=O)c1ccc(Cn2c(=O)c3cccn3c3cccnc32)cc1", "Potency": "inconclusive: 3.69 µM [falling, partial curve]"}
{"smiles": "Cc1cc(C)c(S(=O)(=O)NCC(c2cccs2)S(=O)(=O)c2ccccc2)c(C)c1", "note": "(centres undefined)", "Potency": "inconclusive: 23.3 µM [falling, single point]"}
{"smiles": "O=S(=O)(NCC(c1ccco1)S(=O)(=O)c1cccs1)c1ccc(Cl)cc1", "note": "(centres undefined)", "activity, negative = inhibition": "inactive: -5.76%"}
{"smiles": "CCc1nn(CC(=O)N(C)Cc2ccccc2)c(=O)c2cc3sccc3n12", "Potency": "inconclusive: 23.3 µM [falling, partial curve, poor fit]"}
{"smiles": "Cc1ccc(N=C2NC(=O)CC(C(=O)Nc3cc(C(F)(F)F)ccc3Cl)S2)cc1", "note": "(centres undefined)", "activity, negative = inhibition": "inactive: -37.5%"}
{"smiles": "CCS(=O)(=O)c1ncc(Cl)c(C(=O)Nc2ccccc2)n1", "Potency": "active: 2.61 µM"}
{"smiles": "CCOc1ccc(S(=O)(=O)Nc2cc3c(C(=O)OC)c(COC)oc3c3ccccc23)cc1", "Potency": "inconclusive: 0.736 µM [falling, full curve, poor fit]"}
{"smiles": "COc1ccccc1-c1cc(C(=O)Nc2cc(OC)c(OC)c(OC)c2)no1", "Potency": "inconclusive: 0.414 µM [falling, partial curve, poor fit]"}
{"smiles": "CCN(CC)CCCNC(=O)c1nn(C)c2c1CSc1ccccc1-2", "activity, negative = inhibition": "inactive: 3.66%"}
{"smiles": "COc1ccc(NC(=O)CCc2nc3c(C)nn(-c4ccc(C)cc4)c3n(C)c2=O)cc1", "activity, negative = inhibition": "inactive: -1.68%"}
{"smiles": "CC(C)Oc1ccc(C(=O)NCC(c2ccc(N(C)C)cc2)N2CCCC2)cc1", "note": "(centres undefined)", "Potency": "inconclusive: 14.7 µM [falling, partial curve, poor fit]"}
{"smiles": "Cc1ccc(C)c(NC(=O)Cn2cc(C(=O)c3cccs3)c3ccccc32)c1", "activity, negative = inhibition": "inactive: -9.22%"}
{"smiles": "Cc1ccc(C(=O)COC(=O)c2cccc(NC(=O)c3ccc(Cl)cc3Cl)c2)cc1", "Potency": "inconclusive: 18.5 µM [activator, partial curve, poor fit]"}
{"smiles": "Cc1ccc(NS(=O)(=O)c2cc(-c3cnc(C4CC4)o3)ccc2C)cc1Cl", "activity, negative = inhibition": "inactive: -8.33%"}
{"smiles": "Nc1c(C(=O)Nc2ccccc2F)sc2nc3c(cc12)CCCCCC3", "activity, negative = inhibition": "inactive: -18.6%"}
{"smiles": "CCS(=O)(=O)c1ncc(Cl)c(C(=O)Nc2c(C(=O)Nc3cccc(C)c3)oc3ccccc23)n1", "activity, negative = inhibition": "inactive: -11.7%"}
{"smiles": "COc1ccccc1N1CCN(C(CNC(=O)C(=O)NCc2ccc(F)cc2)c2cccnc2)CC1", "note": "(centres undefined)", "Potency": "inconclusive: 14.7 µM [falling, single point]"}
{"smiles": "CCCOc1ccc(CNC(=O)CCCn2nc(C)c3sc4ccccc4c3c2=O)cc1", "activity, negative = inhibition": "inactive: -12.9%"}
{"smiles": "CC1CCn2c(nc3cc(C(=O)NCc4ccc(OC(C)C)cc4)ccc32)C1", "note": "(centres undefined)", "Potency": "inconclusive: 18.5 µM [falling, partial curve, poor fit]"}
{"smiles": "COc1ccc(Cn2ccc3nc(C)c(C(=O)N4CCN(c5ccc(OC)cc5)CC4)cc3c2=O)cc1", "activity, negative = inhibition": "inactive: -1.62%"}
{"smiles": "Cc1ccc(-c2nnc(Nc3ccc(F)cc3)c3ccccc23)cc1S(=O)(=O)N1CCN(C)CC1", "Potency": "inconclusive: 26.1 µM [falling, single point]"}
{"smiles": "Cc1ccc(NCc2cc3cc4c(cc3n(CC(=O)Nc3ccc(F)cc3F)c2=O)OCCO4)cc1", "Potency": "inconclusive: 26.1 µM [falling, single point]"}
{"smiles": "CCN(CC)CCNC(=O)c1ccc(-c2nc(CN3CCc4ccccc43)c(C)o2)cc1", "Potency": "inconclusive: 0.0465 µM [falling, full curve, poor fit]"}
{"smiles": "COc1ccccc1NC(=O)c1sc(-c2ccc(Cl)cc2)cc1N", "Potency": "inconclusive: 5.21 µM [falling, single point]"}
{"smiles": "CCOc1ccc(C(=O)OCc2cc(=O)n3nc(C4CC4)sc3n2)cc1", "Potency": "inconclusive: 2.93 µM [falling, single point]"}
{"smiles": "Cc1cc(C)cc(Nc2cc(C(=O)NCCCN(C)C3CCCCC3)c3ccccc3n2)c1", "Potency": "inconclusive: 2.33 µM [falling, full curve, poor fit]"}
{"smiles": "CCCOc1cccc(C2c3c(-c4ccccc4O)n[nH]c3C(=O)N2Cc2ccco2)c1", "note": "(centres undefined)", "Potency": "inconclusive: 16.5 µM [falling, partial curve, poor fit]"}
{"smiles": "COc1ccccc1Nc1c2c(nc3ccc(NC(=O)c4ccccc4F)cc13)CCCC2", "Potency": "inconclusive: 13.1 µM [falling, partial curve, poor fit]"}
{"smiles": "Cc1ccc(C)c(N2CCN(CCCNC(=O)c3cnn(-c4ccccc4)c3C3CCN(C(=O)OC(C)(C)C)CC3)CC2)c1", "Potency": "inconclusive: 14.7 µM [falling, single point]"}
{"smiles": "COc1ccc(-n2c(SCc3ccccc3F)nc3c([nH]c4ccccc43)c2=O)cc1OC", "Potency": "inconclusive: 23.3 µM [falling, single point]"}
{"smiles": "CCOc1ccc(S(=O)(=O)N(C(=O)c2ccncc2)c2ccc3oc(C)c(C(=O)OC)c3c2)cc1", "Potency": "active: 3.29 µM"}
